According to publication PMC5409829:

What was measured:
[1] = biological target: Atrophin (Drosophila (endogenous in S2 cells)); test: co-IP; endogenous proteins of S2 cells (10^7 cells per IP); lysate pretreated with micrococcal nuclease (25°C, 5 min); IP with Atro antibody, blot with Trl antibody; IgG as control
[2] = biological target: Atrophin (Drosophila (endogenous in S2 cells)); test: condition: only standard coIP conditions, lysate not pretreated with micrococcal nuclease; co-IP; endogenous proteins of S2 cells; standard coIP conditions, without pretreatment with micrococcal nuclease

B1: Trithorax-like (protein, UniProt Q08605 1-582)
chain: MSLPMNSLYSLTWGDYGTSLVSAIQLLRCHGDLVDCTLAAGGRSFPAHKIVLCAASPFLLDLLKNTPCKHPVVMLAGVNANDLEALLEFVYRGEVSVDHAQLPSLLQAAQCLNIQGLAPQTVTKDDYTTHSIQLQHMIPQHHDQDQLIATIATAPQQTVHAQVVEDIHHQGQILQATTQTNAAGQQQTIVTTDAAKHDQAVIQAFLPARKRKPRVKKMSPTAPKISKVEGMDTIMGTPTSSHGSGSVQQVLGENGAEGQLLSSTPIIKSEGQKVETIVTMDPNNMIPVTSANAATGEITPAQGATGSSGGNTSGVLSTPKAKRAKHPPGTEKPRSRSQSEQPATCPICYAVIRQSRNLRRHLELRHFAKPGVKKEKKTTSGKKSSSGSSGSGSGALSSSGSVPQVQTVQSLHTLQGVQVKKDPDAQQQQQQQQQQQQQQQQQAMTVSGATGGQVQQQVQQVQQQVQQQQQQQQQQQQQLQHHQIIDSSGNITTATTSAQAAAAAQQQAAGQQQQLVAQSDGSESGAPLSIAQVQTLQGHQIIGNLNQVNITDFQQQQPQQQQQQQQQQQQQQQQQQQTQQTL
For B1, the binding [1] was “binds” and the binding [2] was “no binding”.

No constants are given. Whether binding was seen depends on the method and setting. Binding seen in cells or lysates may run through a third protein. For some assays here: Binding can be weak; no strength is given.
